Results reported in publication PMC9984195.
No constants are given. Whether binding was seen depends on the method and setting. Binding seen in cells or lysates may run through a third protein. These calls come from enrichment with a bait or labelling near it, and not all partners need be listed. Where a sequence is shown, tags or fusion partners need not be part of it.

Amino acid sequences for entries named in this document (tags omitted).
UniProt E9PY46: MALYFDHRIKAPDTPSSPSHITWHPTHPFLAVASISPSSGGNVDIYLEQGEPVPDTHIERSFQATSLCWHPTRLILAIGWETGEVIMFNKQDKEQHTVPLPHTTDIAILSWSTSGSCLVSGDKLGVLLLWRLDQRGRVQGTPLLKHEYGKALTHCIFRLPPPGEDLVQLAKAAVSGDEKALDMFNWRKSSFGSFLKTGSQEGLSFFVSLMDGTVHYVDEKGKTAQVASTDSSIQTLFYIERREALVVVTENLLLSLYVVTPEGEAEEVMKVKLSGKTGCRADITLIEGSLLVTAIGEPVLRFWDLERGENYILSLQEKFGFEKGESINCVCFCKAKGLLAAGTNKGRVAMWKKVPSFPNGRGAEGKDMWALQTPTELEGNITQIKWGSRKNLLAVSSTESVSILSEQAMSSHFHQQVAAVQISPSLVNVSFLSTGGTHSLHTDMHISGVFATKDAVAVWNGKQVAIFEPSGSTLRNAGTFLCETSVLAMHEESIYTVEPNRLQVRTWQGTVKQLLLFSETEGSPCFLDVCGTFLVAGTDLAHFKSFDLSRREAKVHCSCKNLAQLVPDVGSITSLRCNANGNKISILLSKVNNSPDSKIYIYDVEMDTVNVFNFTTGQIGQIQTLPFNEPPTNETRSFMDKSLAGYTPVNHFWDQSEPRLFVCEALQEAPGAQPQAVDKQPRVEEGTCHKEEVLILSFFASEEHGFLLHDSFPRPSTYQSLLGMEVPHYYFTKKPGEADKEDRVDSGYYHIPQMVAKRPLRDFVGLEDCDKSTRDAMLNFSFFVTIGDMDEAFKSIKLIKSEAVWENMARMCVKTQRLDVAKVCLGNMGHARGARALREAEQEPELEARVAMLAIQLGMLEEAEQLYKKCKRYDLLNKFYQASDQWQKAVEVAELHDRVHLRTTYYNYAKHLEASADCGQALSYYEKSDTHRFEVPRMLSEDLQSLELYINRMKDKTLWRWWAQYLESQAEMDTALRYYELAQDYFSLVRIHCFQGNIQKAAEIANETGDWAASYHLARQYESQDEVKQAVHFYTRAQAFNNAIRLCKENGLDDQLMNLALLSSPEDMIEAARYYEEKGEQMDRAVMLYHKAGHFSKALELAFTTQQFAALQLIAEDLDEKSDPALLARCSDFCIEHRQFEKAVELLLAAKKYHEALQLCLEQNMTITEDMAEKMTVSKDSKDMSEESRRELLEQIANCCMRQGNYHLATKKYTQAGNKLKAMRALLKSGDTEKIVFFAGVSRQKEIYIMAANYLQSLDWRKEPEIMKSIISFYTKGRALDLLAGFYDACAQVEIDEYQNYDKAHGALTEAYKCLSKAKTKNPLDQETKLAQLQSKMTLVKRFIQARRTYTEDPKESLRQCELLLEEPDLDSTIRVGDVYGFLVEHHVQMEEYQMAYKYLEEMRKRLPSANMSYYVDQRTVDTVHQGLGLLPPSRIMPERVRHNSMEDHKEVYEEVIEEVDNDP
UniProt Q45VK7: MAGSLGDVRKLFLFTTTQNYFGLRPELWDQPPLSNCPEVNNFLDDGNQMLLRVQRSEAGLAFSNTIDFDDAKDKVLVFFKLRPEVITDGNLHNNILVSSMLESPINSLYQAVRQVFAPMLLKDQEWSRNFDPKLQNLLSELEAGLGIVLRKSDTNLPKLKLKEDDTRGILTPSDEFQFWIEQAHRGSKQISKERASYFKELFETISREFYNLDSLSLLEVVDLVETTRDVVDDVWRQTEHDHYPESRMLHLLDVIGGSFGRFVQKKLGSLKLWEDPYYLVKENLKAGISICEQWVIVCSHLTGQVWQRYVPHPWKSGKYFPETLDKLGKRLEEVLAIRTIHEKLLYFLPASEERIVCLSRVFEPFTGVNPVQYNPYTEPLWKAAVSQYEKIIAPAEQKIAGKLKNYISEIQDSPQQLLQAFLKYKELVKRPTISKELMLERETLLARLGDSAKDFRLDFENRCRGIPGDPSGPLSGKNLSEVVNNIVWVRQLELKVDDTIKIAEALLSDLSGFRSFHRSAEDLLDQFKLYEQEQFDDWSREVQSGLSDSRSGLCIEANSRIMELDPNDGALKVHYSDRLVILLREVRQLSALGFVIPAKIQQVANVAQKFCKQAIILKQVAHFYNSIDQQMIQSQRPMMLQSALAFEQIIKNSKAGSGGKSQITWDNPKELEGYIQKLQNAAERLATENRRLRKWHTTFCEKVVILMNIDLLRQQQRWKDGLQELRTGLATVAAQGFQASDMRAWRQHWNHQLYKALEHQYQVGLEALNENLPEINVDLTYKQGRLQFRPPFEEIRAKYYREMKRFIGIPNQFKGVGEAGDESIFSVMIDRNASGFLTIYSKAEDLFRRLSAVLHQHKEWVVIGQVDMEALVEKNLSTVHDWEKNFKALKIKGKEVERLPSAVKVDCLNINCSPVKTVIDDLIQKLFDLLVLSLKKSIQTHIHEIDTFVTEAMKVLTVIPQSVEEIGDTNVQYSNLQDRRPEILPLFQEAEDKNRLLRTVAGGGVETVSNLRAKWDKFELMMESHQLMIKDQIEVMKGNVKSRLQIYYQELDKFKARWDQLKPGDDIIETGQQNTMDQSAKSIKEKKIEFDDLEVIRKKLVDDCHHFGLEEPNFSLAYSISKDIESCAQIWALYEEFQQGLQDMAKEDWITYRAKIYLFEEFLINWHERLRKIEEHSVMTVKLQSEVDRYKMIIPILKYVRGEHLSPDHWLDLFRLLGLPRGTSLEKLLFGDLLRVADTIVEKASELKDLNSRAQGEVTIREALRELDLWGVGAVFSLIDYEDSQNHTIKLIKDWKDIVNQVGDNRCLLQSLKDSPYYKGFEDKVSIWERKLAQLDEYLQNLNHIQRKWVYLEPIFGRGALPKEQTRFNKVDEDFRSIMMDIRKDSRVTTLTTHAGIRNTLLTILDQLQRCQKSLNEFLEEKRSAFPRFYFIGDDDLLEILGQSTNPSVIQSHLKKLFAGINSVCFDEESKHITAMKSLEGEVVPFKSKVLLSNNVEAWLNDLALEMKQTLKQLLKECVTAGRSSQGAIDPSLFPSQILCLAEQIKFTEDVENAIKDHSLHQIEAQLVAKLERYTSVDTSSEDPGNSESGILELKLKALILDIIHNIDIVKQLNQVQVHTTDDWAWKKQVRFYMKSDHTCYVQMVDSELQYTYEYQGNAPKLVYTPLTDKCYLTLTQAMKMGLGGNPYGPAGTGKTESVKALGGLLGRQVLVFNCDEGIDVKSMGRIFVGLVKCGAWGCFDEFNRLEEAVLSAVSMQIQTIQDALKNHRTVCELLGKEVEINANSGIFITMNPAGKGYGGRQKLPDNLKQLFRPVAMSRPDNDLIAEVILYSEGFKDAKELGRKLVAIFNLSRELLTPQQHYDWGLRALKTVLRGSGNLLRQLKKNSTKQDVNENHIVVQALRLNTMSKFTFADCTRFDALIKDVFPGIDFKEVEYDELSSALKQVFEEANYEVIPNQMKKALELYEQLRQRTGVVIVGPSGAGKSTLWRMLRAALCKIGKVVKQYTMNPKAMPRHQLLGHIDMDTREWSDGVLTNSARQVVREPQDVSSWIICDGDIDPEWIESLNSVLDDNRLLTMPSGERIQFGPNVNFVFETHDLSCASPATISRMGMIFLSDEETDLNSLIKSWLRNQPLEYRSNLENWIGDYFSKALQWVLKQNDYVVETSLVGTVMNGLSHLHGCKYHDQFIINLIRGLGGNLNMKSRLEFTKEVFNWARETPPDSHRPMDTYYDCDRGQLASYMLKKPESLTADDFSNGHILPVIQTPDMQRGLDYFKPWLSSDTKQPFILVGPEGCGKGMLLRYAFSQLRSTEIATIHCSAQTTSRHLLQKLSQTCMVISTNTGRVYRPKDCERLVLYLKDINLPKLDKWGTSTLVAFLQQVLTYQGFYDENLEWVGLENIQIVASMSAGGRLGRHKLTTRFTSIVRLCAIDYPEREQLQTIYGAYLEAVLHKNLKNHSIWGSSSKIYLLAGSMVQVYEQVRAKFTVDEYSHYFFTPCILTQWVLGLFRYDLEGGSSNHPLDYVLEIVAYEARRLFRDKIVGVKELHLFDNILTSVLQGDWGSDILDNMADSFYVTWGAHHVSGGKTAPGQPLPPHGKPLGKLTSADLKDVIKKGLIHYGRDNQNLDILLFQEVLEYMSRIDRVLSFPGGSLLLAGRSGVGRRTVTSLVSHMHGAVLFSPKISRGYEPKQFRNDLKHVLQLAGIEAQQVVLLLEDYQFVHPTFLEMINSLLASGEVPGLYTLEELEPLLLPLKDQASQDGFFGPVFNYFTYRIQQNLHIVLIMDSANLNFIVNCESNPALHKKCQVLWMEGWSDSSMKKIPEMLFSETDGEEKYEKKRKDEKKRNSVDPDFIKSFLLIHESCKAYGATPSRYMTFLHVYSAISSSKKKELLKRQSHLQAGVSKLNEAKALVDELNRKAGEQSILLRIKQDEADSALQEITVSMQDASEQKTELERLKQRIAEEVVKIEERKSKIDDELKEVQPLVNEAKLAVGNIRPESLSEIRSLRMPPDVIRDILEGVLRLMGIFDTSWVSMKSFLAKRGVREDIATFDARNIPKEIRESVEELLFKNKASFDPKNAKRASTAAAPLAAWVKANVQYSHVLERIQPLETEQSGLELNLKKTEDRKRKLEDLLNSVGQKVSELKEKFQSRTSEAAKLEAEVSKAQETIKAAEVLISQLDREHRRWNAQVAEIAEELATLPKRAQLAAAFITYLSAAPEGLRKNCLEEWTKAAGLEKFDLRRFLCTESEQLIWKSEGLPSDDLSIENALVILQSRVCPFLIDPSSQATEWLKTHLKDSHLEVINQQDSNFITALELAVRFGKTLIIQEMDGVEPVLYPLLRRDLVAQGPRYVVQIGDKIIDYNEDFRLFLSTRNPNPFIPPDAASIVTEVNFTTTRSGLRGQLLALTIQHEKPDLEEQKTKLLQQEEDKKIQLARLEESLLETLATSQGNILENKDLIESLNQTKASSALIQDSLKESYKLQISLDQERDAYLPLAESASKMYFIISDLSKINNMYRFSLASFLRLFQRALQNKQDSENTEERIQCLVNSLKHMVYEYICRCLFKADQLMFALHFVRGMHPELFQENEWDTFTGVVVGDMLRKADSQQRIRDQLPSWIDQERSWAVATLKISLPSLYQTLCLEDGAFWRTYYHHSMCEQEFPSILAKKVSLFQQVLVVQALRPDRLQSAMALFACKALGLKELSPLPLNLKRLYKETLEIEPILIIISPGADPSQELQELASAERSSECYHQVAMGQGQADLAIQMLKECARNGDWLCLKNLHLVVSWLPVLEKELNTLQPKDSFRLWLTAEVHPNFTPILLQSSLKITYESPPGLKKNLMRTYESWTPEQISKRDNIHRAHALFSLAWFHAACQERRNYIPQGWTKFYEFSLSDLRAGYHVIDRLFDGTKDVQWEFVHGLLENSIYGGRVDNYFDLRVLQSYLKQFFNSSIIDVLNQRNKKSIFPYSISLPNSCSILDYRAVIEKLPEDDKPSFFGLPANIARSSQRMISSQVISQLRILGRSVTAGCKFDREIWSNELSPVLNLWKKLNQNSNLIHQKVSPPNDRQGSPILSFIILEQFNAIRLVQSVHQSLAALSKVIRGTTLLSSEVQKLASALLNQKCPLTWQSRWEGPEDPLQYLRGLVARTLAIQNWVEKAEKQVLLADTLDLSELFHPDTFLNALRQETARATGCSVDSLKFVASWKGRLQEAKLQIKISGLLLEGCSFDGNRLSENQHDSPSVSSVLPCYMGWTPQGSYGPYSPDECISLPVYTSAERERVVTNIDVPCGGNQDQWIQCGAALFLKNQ
UniProt Q61025: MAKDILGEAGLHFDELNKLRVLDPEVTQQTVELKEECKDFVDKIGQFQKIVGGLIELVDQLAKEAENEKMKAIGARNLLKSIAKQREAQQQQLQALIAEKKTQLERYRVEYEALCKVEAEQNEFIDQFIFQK

T1: Centrosomal protein of 78 kDa (Cep78), endogenous mouse testicular protein (mouse (endogenous in testis)) (UniProt Q6IRU7)
T1 sequence: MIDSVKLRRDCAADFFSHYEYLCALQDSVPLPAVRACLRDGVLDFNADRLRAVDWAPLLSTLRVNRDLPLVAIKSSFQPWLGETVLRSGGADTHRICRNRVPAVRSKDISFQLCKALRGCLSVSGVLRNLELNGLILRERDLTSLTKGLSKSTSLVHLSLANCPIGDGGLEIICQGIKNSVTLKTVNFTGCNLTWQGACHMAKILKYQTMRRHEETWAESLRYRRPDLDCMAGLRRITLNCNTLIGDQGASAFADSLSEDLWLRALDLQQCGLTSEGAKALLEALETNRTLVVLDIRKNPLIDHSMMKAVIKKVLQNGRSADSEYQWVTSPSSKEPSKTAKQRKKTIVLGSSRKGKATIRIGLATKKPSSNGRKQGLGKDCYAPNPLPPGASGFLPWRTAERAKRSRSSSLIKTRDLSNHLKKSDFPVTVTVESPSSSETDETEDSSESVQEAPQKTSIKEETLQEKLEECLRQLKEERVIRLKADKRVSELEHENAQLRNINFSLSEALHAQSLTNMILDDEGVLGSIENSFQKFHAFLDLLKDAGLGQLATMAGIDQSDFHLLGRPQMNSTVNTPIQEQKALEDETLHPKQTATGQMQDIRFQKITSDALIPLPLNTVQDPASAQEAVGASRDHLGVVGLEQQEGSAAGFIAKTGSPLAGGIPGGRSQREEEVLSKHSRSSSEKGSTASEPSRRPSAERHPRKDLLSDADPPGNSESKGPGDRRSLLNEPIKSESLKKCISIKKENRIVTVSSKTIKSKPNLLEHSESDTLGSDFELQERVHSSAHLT


The molecules below were run against T1, Centrosomal protein of 78 kDa (Cep78), endogenous mouse testicular protein (mouse (endogenous in testis)) (assay: affinity purification with mass spectrometry; anti-Cep78 (custom antibody against p457-741 of mouse Cep78) immunoprecipitation from testicular lysates of Cep78^+/− and Cep78^−/− mice, Pierce IP lysis buffer, Pierce co-IP kit, quantitative LC-MS of silver-stained gel lanes).

Molecule	binding
Intraflagellar transport protein 140 homolog (from UniProt E9PY46 1-1464)	binds
Cytoplasmic dynein 2 heavy chain 1 (from UniProt Q45VK7 1-4306)	binds
Intraflagellar transport protein 20 homolog (Ift20), endogenous mouse testicular protein (from UniProt Q61025 1-132)	binds
EH domain-containing protein 1 (protein, UniProt Q9WVK4 1-534) MFSWVSKDARRKKEPELFQTVAEGLRQLYAQKLLPLEEHYRFHEFHSPALEDADFDNKPMVLLVGQYSTGKTTFIRHLIEQDFPGMRIGPEPTTDSFIAVMHGPTEGVVPGNALVVDPRRPFRKLNAFGNAFLNRFMCAQLPNPVLDSISIIDTPGILSGEKQRISRGYDFAAVLEWFAERVDRIILLFDAHKLDISDEFSEVIKALKNHEDKIRVVLNKADQIETQQLMRVYGALMWSLGKIINTPEVVRVYIGSFWSHPLLIPDNRKLFEAEEQDLFKDIQSLPRNAALRKLNDLIKRARLAKVHAYIISSLKKEMPNVFGKESKKKELVNNLGEIYQKIEREHQISSGDFPSLRKMQELLQTQDFSKFQALKPKLLDTVDDMLANDIARLMVMVRQEESLMPSQAVKGGAFDGTMNGPFGHGYGEGAGEGIDDVEWVVGKDKPTYDEIFYTLSPVNGKITGANAKKEMVKSKLPNTVLGKIWKLADVDKDGLLDDEEFALANHLIKVKLEGHELPADLPPHLIPPSKRRHE	binds
ATP-dependent 6-phosphofructokinase, muscle type (protein, UniProt P47857 1-780) MTHEEHHAAKTLGIGKAIAVLTSGGDAQGMNAAVRAVVRVGIFTGARVFFVHEGYQGLVDGGEHIREATWESVSMMLQLGGTVIGSARCKDFREREGRLRAAHNLVKRGITNLCVIGGDGSLTGADTFRSEWSDLLNDLQKDGKITAEEATKSSYLNIVGLVGSIDNDFCGTDMTIGTDSALHRIVEIVDAITTTAQSHQRTFVLEVMGRHCGYLALVTSLSCGADWVFIPECPPDDDWEEHLCRRLSETRTRGSRLNIIIVAEGAIDKNGKPITSEDIKNLVVKRLGYDTRVTVLGHVQRGGTPSAFDRILGSRMGVEAVMALLEGTPDTPACVVSLSGNQAVRLPLMECVQVTKDVTKAMDEKRFDEAIKLRGRSFMNNWEVYKLLAHVRPPVSKGGLHTVAVMNVGAPAAGMNAAVRSTVRIGLIQGNRVLVVHDGFEGLAKGQIEEAGWSYVGGWTGQGGSKLGTKRTLPKKNLEQISANITKFNIQGLVIIGGFEAYTGGLELMEGRKQFDELCIPFVVIPATVSNNVPGSDFSIGADTALNTICTTCDRIKQSAAGTKRRVFIIETMGGYCGYLATMAGLAAGADAAYIFEEPFTIRDLQVNVEHLVQKMKTTVKRGLVLRNEKCNENYTTDFIFNLYSEEGKGIFDSRKNVLGHMQQGGSPTPFDRNFATKMGAKAMNWMSGKIKESYRNGRIFANTPDSGCVLGMRKRALVFQPVTELKDQTDFEHRIPKEQWWLKLRPILKILAKYEIDLDTSDHAHLEHISRKRSGEAAV	binds
Sperm flagellar protein 1 (protein, UniProt Q99JL1 1-234) MESSVDEEALHQLYLWVDNIPLSRPKRNLSRDFSDGVLVAELIKFYFPKMVEMHNYVPANSLQQKLSNWGHLNRKVLNKLNFSVPDDVMRKIAQCSPGVVELVLIPLRQRLEERQRRQKLGVGSLQELAPQDSSGYMDMGLPQKVRGEGAPALGEQLREGRPLASRPPGYNQALQGDPSFVLQIAEKEQELLASQETVQVLQMKVKRLEHLLQLKNVRIDDLSRRLQQAERKQR	binds

Second part, the molecule after the results:

binding	Molecule
binds	Tetratricopeptide repeat protein 21 A (Ttc21a), endogenous mouse testicular protein (protein, UniProt Q8C0S4 1-1314) MSSDDSSLMASIIYYSQEKYFHHVLQAANVGLERYSSDPALQFFRAYGILGEDHIHDAISELEGIQSHPDTSLCAVIALLSAHKSCDTIDIEAVQELESSLKEIRRSASSTALYYASLFLWFMGHHDKAREYVDHMLKVSSGSKEGYVLKGWVDLTSSKPHVVKKSIKYLEQGTQDTKDVLGLMGKATYFMTQQNFSGALEVANQVTLACSNFLPALVLKMKLFLARQDWDQTIETGQRILEKDENNIDAWQILAVHELVKEGNTDRAADRVRNLIKALETGEPHNPNLHLKKILVISRLCGRHQVVHRLVSGFLERIFMATPSCALVATELGYLFILHQQVKEACLWYKEAMKLEENRLAALAGSIWCQILQGQLEEAAHQLEFLKEVQQSLGKSELLVFLQALVAAKKQRLEQEATALLKEAVEVHFSSMQGLALSPEYFEKLDPLFLVCIAKEYLHFCPKQPRSPGQLVSPLLKQVAMILSPVVKVAPAMMEPLYVTAQVKFLSGELENAQSTLQRCLELDPTFVDAHLLMSQIYLAQGNFAMCSHCLELGVSHNFQVRDHPLYHFIKARALNKTGDYAEAIKTLKMIIKVPTSKAEEGRKSQSPSVRPSERASILLELVEALRLNGELHEATKIMQDAINEFSGTPEEMRITVANVDLALSKGNVDLALNMLRGITPKQPCYTEAKEKMASIYLHTRKDVRLYIGCYVELCEHLPGPHSSLLLGDAFMNIQEPEKALEVYDEAYRKNPHDASLVSRIGQAYVKTHQYAKAINYYEAAQKISGQDFLCCELAELLLKLKKYHKAEKVLKQALERDSGVKDIPSMINEVKCLLLLAKVYKSHKKEEVMETLNLALDLQSRILKRVPLEQSEMIPFQNQLAASICIQIGEHHLAEKDYDSALKSYKDALAYSPTDSKVVLELAHLYLLLGQLDLCEQRCAPLLEMEQTHERAAVMLADLMFRRQNYETAINLYHQVLEKAPDNFLVLNKLVDLLRRSGKLEEAPAFFELAKKVSSRVPLEPGFNYCQGIYFWHIGQPNEALRFLNKARKDSTWGQLATCYMVQICLNPDNEIVGGEAFESLVGDSNSASRKESQQHGVRTAEKLLREFYPHSESGQTQLRLLQNLCLLATREKANVEVALGAFIEMAQAEKDSIPALLAMAQAYILLKQVPKARTQLKRLAKVPWTVDEAEDLEKSWLLLADIYCQGGKFDLALELLRRCLQYNKSCCRAYEYMGFIMEKEQSYKDAATNYELAWKYSHQANPAIGFKLAFNYLKDKKFVDAIEVCHSVLTEHPKYPKIREEILEKAQGSLRP
binds	Tetratricopeptide repeat protein 30A1 (protein, UniProt Q99J38 1-664) MAWQSSSKVPDGEFTAVVYRLIRDSRYSEAVQLLSAELQRSSRSRAGLSLLAYCYYRLQEFELAAECYEQLSQMHPELEQYRLYQAQALYKACLYPEATRVTFLLDNPAYQTRVLRLQAAIKYSEGDLPGARSLVEQLLSGEAGEDSGGENDPDGLVNMGCLLYKEGHYEAACSKFLAALQASGYQPDLSYNLALAYYSSRQYAPALKHIADIIERGIRQHPELGVGMTTEGIDVRSVGNTVVLHQTALIEAFNLKAAIEYQLRNFEVAQETLTDMPPRAEEELDPVTLHNQALMNMDAKPTEGFEKLQFLLQQNPFPPETFGNLLLLYCKYEYFDLAADVLAENAHLTYKFLTPYLYDFLDAMITCQTAPEEAFIKLDGLAGMLTEQLRRLTKQVQEARHNRDDEIIKKAMNEYDETLEKYIPVLMAQAKIYWNLENYPMVEKIFRKSVEFCNDHDVWKLNVAHVLFMQENKYKEAIGFYEPIVKKNYDNILSVSAIVLANLCVSYIMTSQNEEAEELMRKIEKEEEQLSYGDPDKKIYHLCIVNLVIGTLYCAKGNYDFGISRVIKSLEPYHKKLGTDTWYYAKRCFLSLLENMSKHMIVLCDGVVQECVQFLEYCELYGRNIPAVLEQPLEEERIHTGKNTVTYESRLLKALIYEVIGWNM
binds	Tetratricopeptide repeat protein 21B (protein, UniProt Q0HA38 1-1315) MDSQGLKTLINYYCQERYYHHVLLVASEGMKKYSSDPVFRFYHAYGTLMEGKAQEALREFEAIKNKQDVSLCSLMALMYVHKMSPNPDREAILELDTKMKEQRKEAGRKALYHAGLFLWHIGRHDKAREYIDRMSKMPHDSNEGPILKAWLDITRGKEPYAKKALRYFEEGLQDGNDIFALLGKVLCLEIRQNYSGALETVSQIIVNFPSFLPAFEKKMKLQLALQDWDQTVETAQRLLLQDNHNVEALRMLALYYLCREGDVEKAATKLENLGNALDVMEPQNAQLFYKITLAFSRTCGRNQLILQKVQSFLEKAFSLTPQQAEIATELGYQMILQGKVKEAWKWYRTAMTLNESNISAVTGLIRCQLIEGQLQDADQQLEFFSEFQQSMGKSAELMYLHAVLATKKNNRQDEVINLLNDVVNTHFSHLEDLPLGIQYFEKLNPDFLLEVVTEYLNLCPIQPAGPGQPLSPVLRRCSSVLETIIRSVPGLPQAVFLMAKVKYLSGDTEAAYNNLQHCLEHSPSYAEAHLLMAQVYLSQDKVKLCSQSLELCLSYNFNVREYPLYHLIKAQSQKKMGEVAEAIKTLHMAMNLPGMRRSRASSKSKHRTEVDASHRLSIFLELVEVHRLNGEQHEAAKVLQDAIHEFSGTCEELRVTIANADLALAQGDTDRALSMLRNVTTEQPYFIEAKEKMADIYLKHRKEKMLYITCYREIAERMPSPRSFLLLGDAYMNIQEPEEAIVAYEQALNQNPKDGTLARKIGKALVKTHNYSKAITYYEAALKSGQQNCLCYDLAELLLRLKLYEKAEKVLQHSLAHEPVSELSALMVDGRSQVLLAKVYSKMERPSDAIAALQQARELQARILKRVQMEQPDAVPSQKHFAAEICAEIAKHSAAQRDYEKAITFYREALVHCETDSKIMLELAQLYLAQEDLDASLRHCALLLQRDQDNEPATMLMADLMFRKQDYEQAVYHLQQLLDRKPDNFMTLSRLIDLLRRCGKLEDVPRFFLMAEKHNSRTKLEPGFQYCKGLHFWYTGEPNDALRHFNKARKDSDWGQNALYNMIEICLNPDNETIGGEVFENLNGDLGTSPEKQESVQLAVRTAEKLLKELKPQTVQGRLQLRIMENCCLMATKQKSSVEQALNTFTEIAASEKDHIPALLGMATAYMILKQTPKARNQLKRIAKMPWNPIEAEDLEKSWLLLADIYIQSAKYDMAEELLKRCLCHNRSCCKAYEYMGYIMEKEQAYTDAAFNYEMAWKHSNQTNPAVGYKLAFNYLKAKRYVDAIDVCHQVLEAHPTYPKIRKDILDKARASLRP
